Data source: PubChem BioAssay AID1259308 (NCATS, 2017)
Screen: 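Knock-downs that increase output of a recombinant reporter protein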 (primary screen). Cell system: human HEK293 embryonic kidney cells stably expressing firefly luciferase (HEK-CMV-Luc2-Hygro). Reagents: single siRNA against human genes, 0.8 pmol siRNA per well. Duration: 72 h. Measured: 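Reporter luminescence and viable-cell signal on separate replicate plates, given as percent of non-targeting control and median/MAD z-scores, plus per-cell luciferase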. Direction: total luciferase, z-score and total luciferase, % of control: higher = more reporter protein produced; luciferase per cell, z-score: higher = more reporter output per viable cell. Call rule: 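Active when the median/MAD z-score for overall luciferase is greater than 3; a gene was taken forward for validation with new siRNAs if at least two of its three siRNAs passed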. Calls: active = raised luciferase; inactive = no rise.
This is an unselected part of about 59,000 deposited reagents. Of all reagents, about 1,510 (2.6%) got an active call. 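Calls use total luciferase alone and ignore viability, so some active siRNAs may act by altering cell number.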 A number with no mark means an inactive call. Reagents against one gene are numbered here. Not all columns of the deposit are shown.

gene symbol,siRNA no.,"total luciferase, z-score","total luciferase, % of control","luciferase per cell, z-score"
MAP1LC3BP1,1,1.04,102,1.59
MAP1LC3BP1,2,-0.173,78.4,0.163
MAP1LC3BP1,3,-1.48,52.4,-0.958
PTPRM (protein tyrosine phosphatase receptor type M),1,-1.7,48.1,-1.7
PTPRM (protein tyrosine phosphatase receptor type M),2,0.191,85.7,0.0702
PTPRM (protein tyrosine phosphatase receptor type M),3,0.382,89.5,0.151
RPL23AP37 (ribosomal protein L23a pseudogene 37),1,-1.9,44.1,-0.706
RPL23AP37 (ribosomal protein L23a pseudogene 37),2,-1.88,44.6,-1.57
RPL23AP37 (ribosomal protein L23a pseudogene 37),3,0.332,88.5,0.869
ZNF691 (zinc finger protein 691),1,0.472,91.3,1.02
ZNF691 (zinc finger protein 691),2,0.286,87.6,0.108
ZNF691 (zinc finger protein 691),3,0.0178,82.2,-0.152
TGM1 (transglutaminase 1),1,-1.57,50.7,-2
TGM1 (transglutaminase 1),2,0.388,89.6,0.287
TGM1 (transglutaminase 1),3,2.24,126,2.03
SLC49A4,1,-1.6,50.1,-1.2
SLC49A4,2,-0.848,65,-1.13
SLC49A4,3,-1.97,42.7,-2.07
CCDC42 (coiled-coil domain containing 42),1,-0.546,71,-0.0111
CCDC42 (coiled-coil domain containing 42),2,-0.172,78.5,-0.241
CCDC42 (coiled-coil domain containing 42),3,0.0116,82.1,-0.606
SLC39A5,1,1.34,108,1.37
SLC39A5,2,0.427,90.4,0.1
SLC39A5,3,0.875,99.3,0.311
ANKRD23 (ankyrin repeat domain 23),1,-0.613,69.7,-0.586
ANKRD23 (ankyrin repeat domain 23),2,0.675,95.3,1.53
ANKRD23 (ankyrin repeat domain 23),3,-0.859,64.8,-0.731
RIOK2 (RIO kinase 2),1,-0.567,70.6,-0.231
RIOK2 (RIO kinase 2),2,-0.836,65.3,0.898
RIOK2 (RIO kinase 2),3,0.5,91.8,0.457
PROK2 (prokineticin 2),1,0.225,86.4,0.4
PROK2 (prokineticin 2),2,-0.451,72.9,0.681
PROK2 (prokineticin 2),3,1.83,118,2.16
SERPINF2 (serpin family F member 2),1,-2.01,41.8,-1.52
SERPINF2 (serpin family F member 2),2,-0.189,78.1,-0.351
SERPINF2 (serpin family F member 2),3,1.73,116,1.43
KLF17 (KLF transcription factor 17),1,-1.59,50.3,-0.721
KLF17 (KLF transcription factor 17),2,-1.41,53.9,-1.71
KLF17 (KLF transcription factor 17),3,0,81.9,0.12

Taken from above.
Result of RIOK2 (RIO kinase 2) #2 in “total luciferase, z-score”: -0.836
TGM1 (transglutaminase 1) #2, total luciferase, % of control = 89.6
